Measurements taken from article PMC9426602, “The Native Orthobunyavirus Ribonucleoprotein Possesses a Helical Architecture” (mBio, 2022).
Results are given in words; binding and its absence hold for the method and conditions named.

The chains behind the UniProt entries cited, without tags or fusion partners.
UniProt P16495: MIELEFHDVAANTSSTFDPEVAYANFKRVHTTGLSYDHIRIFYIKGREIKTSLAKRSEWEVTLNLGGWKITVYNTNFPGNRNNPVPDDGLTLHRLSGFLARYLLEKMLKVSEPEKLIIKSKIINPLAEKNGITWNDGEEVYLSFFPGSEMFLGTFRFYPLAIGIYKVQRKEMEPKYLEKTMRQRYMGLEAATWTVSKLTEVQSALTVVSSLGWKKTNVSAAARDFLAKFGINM

Biological target: Bunyamwera virus (BUNV) nucleocapsid protein (NP), as it stands in native ribonucleoproteins (RNPs) purified from virions (Bunyamwera virus) (UniProt P16495)
Assay: condition: only after RNase A at 0.1 mg/mL or 1 mg/mL, 30 min at room temperature; negative staining EM; purified native RNPs in TNE treated with RNase A (0.1 mg/mL or 1 mg/mL) for 30 min at room temperature, then negative staining; both purified

Bunyamwera virus (BUNV) nucleocapsid protein (NP), as it stands in native ribonucleoproteins (RNPs) purified from virions (from UniProt P16495 1-233)
binding: no binding
